Results deposited as PubChem BioAssay AID743121 (NCATS, 2013).
This is one part, drawn at random, of about 26,000 deposited reagents. Over the whole deposit, 167 (0.63%) were called active. 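Calls are per gene from RSA p-values that are not deposited; an individual active-marked siRNA can sensitise only weakly.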 The numbers tell different reagents against one gene apart.

- Screen: 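Partners whose loss is lethal together with topoisomerase I blockade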 (primary screen)
- Cell system: MDA-MB-231 cells, a human breast cancer line
- Reagents: single siRNA against human genes, 20 nM siRNA (0.8 pmol per well)
- Time to read-out: 120 h (drug added 48 h after transfection, read 72 h later)
- Treatment: camptothecin 20 nM (about EC30) for 72 h; vehicle 0.1% DMSO in parallel plates
- Detection: 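CellTiter-Glo ATP signal, scaled to control siRNA as percent viability; sensitisation given as log2 of untreated divided by camptothecin-treated viability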
- Direction: log2 vehicle/camptothecin viability: higher = stronger sensitisation to camptothecin; viability with camptothecin and viability without drug: higher = more viable cells
- Active means: 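Each gene scored by redundant siRNA activity (RSA) over its individual siRNA ratios; a gene is called active at p < 0.001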

The opening 11 entries, ahead of the listing:
| Gene | siRNA no. | log2 vehicle/camptothecin viability | viability with camptothecin (% of control) | viability without drug (% of control) | activity call |
| --- | --- | --- | --- | --- | --- |
| CYSLTR1 (cysteinyl leukotriene receptor 1) | 1 | 0.0599 | 90.4 | 94.2 | inactive |
| CYSLTR1 (cysteinyl leukotriene receptor 1) | 2 | -0.289 | 135 | 110 | inactive |
| CYSLTR1 (cysteinyl leukotriene receptor 1) | 3 | -0.286 | 85.8 | 70.4 | inactive |
| CYSLTR1 (cysteinyl leukotriene receptor 1) | 4 | -0.172 | 88.7 | 78.8 | inactive |
| SLITRK6 (SLIT and NTRK like family member 6) | 1 | -0.158 | 97.2 | 87.2 | inactive |
| SLITRK6 (SLIT and NTRK like family member 6) | 2 | -0.219 | 69.1 | 59.4 | inactive |
| SLITRK6 (SLIT and NTRK like family member 6) | 3 | -0.0915 | 57 | 53.5 | inactive |
| SLITRK6 (SLIT and NTRK like family member 6) | 4 | 0.0473 | 99 | 102 | inactive |
| CA13 (carbonic anhydrase 13) | 1 | -0.118 | 82.2 | 75.8 | inactive |
| CA13 (carbonic anhydrase 13) | 2 | 0.174 | 65.3 | 73.6 | inactive |
| CA13 (carbonic anhydrase 13) | 3 | -0.283 | 115 | 94.2 | inactive |

The listing, from the first entry:
| Gene | siRNA no. | log2 vehicle/camptothecin viability | viability with camptothecin (% of control) | viability without drug (% of control) | activity call |
| --- | --- | --- | --- | --- | --- |
| CYSLTR1 (cysteinyl leukotriene receptor 1) | 1 | 0.0599 | 90.4 | 94.2 | inactive |
| CYSLTR1 (cysteinyl leukotriene receptor 1) | 2 | -0.289 | 135 | 110 | inactive |
| CYSLTR1 (cysteinyl leukotriene receptor 1) | 3 | -0.286 | 85.8 | 70.4 | inactive |
| CYSLTR1 (cysteinyl leukotriene receptor 1) | 4 | -0.172 | 88.7 | 78.8 | inactive |
| SLITRK6 (SLIT and NTRK like family member 6) | 1 | -0.158 | 97.2 | 87.2 | inactive |
| SLITRK6 (SLIT and NTRK like family member 6) | 2 | -0.219 | 69.1 | 59.4 | inactive |
| SLITRK6 (SLIT and NTRK like family member 6) | 3 | -0.0915 | 57 | 53.5 | inactive |
| SLITRK6 (SLIT and NTRK like family member 6) | 4 | 0.0473 | 99 | 102 | inactive |
| CA13 (carbonic anhydrase 13) | 1 | -0.118 | 82.2 | 75.8 | inactive |
| CA13 (carbonic anhydrase 13) | 2 | 0.174 | 65.3 | 73.6 | inactive |
| CA13 (carbonic anhydrase 13) | 3 | -0.283 | 115 | 94.2 | inactive |
| CA13 (carbonic anhydrase 13) | 4 | -0.0634 | 111 | 106 | inactive |
| PKD1L2 (polycystin 1 like 2 (gene/pseudogene)) | 1 | -0.421 | 49.8 | 37.2 | inactive |
| PKD1L2 (polycystin 1 like 2 (gene/pseudogene)) | 2 | -0.24 | 52.1 | 44.1 | inactive |
| PKD1L2 (polycystin 1 like 2 (gene/pseudogene)) | 3 | -0.134 | 83.4 | 76 | inactive |
| PKD1L2 (polycystin 1 like 2 (gene/pseudogene)) | 4 | -0.212 | 71.5 | 61.8 | inactive |
| ANGPTL4 (angiopoietin like 4) | 1 | -0.45 | 29.2 | 21.4 | inactive |
| ANGPTL4 (angiopoietin like 4) | 2 | 0.0872 | 50.2 | 53.3 | inactive |
| ANGPTL4 (angiopoietin like 4) | 3 | -0.363 | 77.3 | 60.1 | inactive |
| ANGPTL4 (angiopoietin like 4) | 4 | -0.141 | 77.1 | 69.9 | inactive |
| SURF1 (SURF1 cytochrome c oxidase assembly factor) | 1 | 0.0569 | 64 | 66.5 | inactive |
| SURF1 (SURF1 cytochrome c oxidase assembly factor) | 2 | -0.354 | 81.2 | 63.6 | inactive |
| SURF1 (SURF1 cytochrome c oxidase assembly factor) | 3 | 0.0671 | 78.8 | 82.6 | inactive |
| SURF1 (SURF1 cytochrome c oxidase assembly factor) | 4 | -0.127 | 57.6 | 52.7 | inactive |
| SLC26A2 | 1 | -0.197 | 64 | 55.9 | inactive |
| SLC26A2 | 2 | -0.201 | 106 | 92.6 | inactive |
| SLC26A2 | 3 | -0.313 | 107 | 86.4 | inactive |
| SLC26A2 | 4 | -0.0713 | 98.3 | 93.5 | inactive |
| TMX2 (thioredoxin related transmembrane protein 2) | 1 | -0.226 | 95.6 | 81.7 | inactive |
| TMX2 (thioredoxin related transmembrane protein 2) | 2 | 0.441 | 60.8 | 82.5 | inactive |
| TMX2 (thioredoxin related transmembrane protein 2) | 3 | 0.398 | 61.8 | 81.4 | inactive |
| USP18 (ubiquitin specific peptidase 18) | 1 | 0.472 | 72.9 | 101 | inactive |
| USP18 (ubiquitin specific peptidase 18) | 2 | 0.292 | 37.6 | 46.1 | inactive |
| USP18 (ubiquitin specific peptidase 18) | 3 | 0.034 | 79.9 | 81.8 | inactive |
| USP18 (ubiquitin specific peptidase 18) | 4 | 0.364 | 75.1 | 96.6 | inactive |
| USP18 (ubiquitin specific peptidase 18) | 5 | 0.401 | 47.7 | 63 | inactive |
| USP18 (ubiquitin specific peptidase 18) | 6 | 0.0354 | 50.1 | 51.4 | inactive |
| USP18 (ubiquitin specific peptidase 18) | 7 | -0.225 | 117 | 100 | inactive |
| USP18 (ubiquitin specific peptidase 18) | 8 | -0.0136 | 79.5 | 78.7 | inactive |
| ALOX12B (arachidonate 12-lipoxygenase, 12R type) | 1 | -0.249 | 96.8 | 81.5 | inactive |
| ALOX12B (arachidonate 12-lipoxygenase, 12R type) | 2 | -0.236 | 75.2 | 63.9 | inactive |
| ALOX12B (arachidonate 12-lipoxygenase, 12R type) | 3 | -0.513 | 43.4 | 30.4 | inactive |
| ALOX12B (arachidonate 12-lipoxygenase, 12R type) | 4 | -0.0833 | 99.5 | 93.9 | inactive |
| EPB41L1 (erythrocyte membrane protein band 4.1 like 1) | 1 | -0.104 | 115 | 107 | inactive |
| EPB41L1 (erythrocyte membrane protein band 4.1 like 1) | 2 | 0.0537 | 32.7 | 34 | inactive |
| EPB41L1 (erythrocyte membrane protein band 4.1 like 1) | 3 | 0.103 | 44 | 47.2 | inactive |
| EPB41L1 (erythrocyte membrane protein band 4.1 like 1) | 4 | -0.134 | 111 | 101 | inactive |
| PCNA (proliferating cell nuclear antigen) | 1 | -0.31 | 68 | 54.8 | inactive |
| PCNA (proliferating cell nuclear antigen) | 2 | -0.854 | 64.7 | 35.8 | inactive |
| PCNA (proliferating cell nuclear antigen) | 3 | -0.785 | 69.4 | 40.3 | inactive |
| PCNA (proliferating cell nuclear antigen) | 4 | -0.685 | 99.3 | 61.7 | inactive |
| BCAT1 (branched chain amino acid transaminase 1) | 1 | 0.228 | 75 | 87.9 | inactive |
| BCAT1 (branched chain amino acid transaminase 1) | 2 | -0.12 | 88.5 | 81.4 | inactive |
| BCAT1 (branched chain amino acid transaminase 1) | 3 | 0.00138 | 65.5 | 65.6 | inactive |
| BCAT1 (branched chain amino acid transaminase 1) | 4 | 0.195 | 27.7 | 31.7 | inactive |
| REV1 (REV1 DNA directed polymerase) | 1 | -0.0958 | 102 | 95.3 | inactive |
| REV1 (REV1 DNA directed polymerase) | 2 | 0.481 | 40.9 | 57 | inactive |
| REV1 (REV1 DNA directed polymerase) | 3 | 0.0264 | 56.1 | 57.1 | inactive |
| OR10A5 (olfactory receptor family 10 subfamily A member 5) | 1 | -0.653 | 38.4 | 24.4 | inactive |
| OR10A5 (olfactory receptor family 10 subfamily A member 5) | 2 | -0.32 | 91.1 | 72.9 | inactive |
| OR10A5 (olfactory receptor family 10 subfamily A member 5) | 3 | -0.366 | 91.1 | 70.7 | inactive |
| OR10A5 (olfactory receptor family 10 subfamily A member 5) | 4 | -0.298 | 75.5 | 61.4 | inactive |
| OR10A5 (olfactory receptor family 10 subfamily A member 5) | 5 | -0.417 | 80.1 | 60 | inactive |
| OR10A5 (olfactory receptor family 10 subfamily A member 5) | 6 | -0.101 | 93.9 | 87.6 | inactive |
| OR10A5 (olfactory receptor family 10 subfamily A member 5) | 7 | 0.285 | 50.6 | 61.6 | inactive |
| LEPROTL1 (leptin receptor overlapping transcript like 1) | 1 | -0.315 | 107 | 86.4 | inactive |
| LEPROTL1 (leptin receptor overlapping transcript like 1) | 2 | -0.368 | 86.7 | 67.2 | inactive |
| LEPROTL1 (leptin receptor overlapping transcript like 1) | 3 | -0.0809 | 83.7 | 79.1 | inactive |
| LEPROTL1 (leptin receptor overlapping transcript like 1) | 4 | -0.222 | 86.3 | 74 | inactive |
| LTB4R2 (leukotriene B4 receptor 2) | 1 | -0.0976 | 93.6 | 87.5 | inactive |
| LTB4R2 (leukotriene B4 receptor 2) | 2 | 0.157 | 61.3 | 68.3 | inactive |
| LTB4R2 (leukotriene B4 receptor 2) | 3 | -0.173 | 73.2 | 64.9 | inactive |
| FLRT2 (fibronectin leucine rich transmembrane protein 2) | 1 | -0.109 | 98.3 | 91.2 | inactive |
| FLRT2 (fibronectin leucine rich transmembrane protein 2) | 2 | -0.607 | 75.6 | 49.6 | inactive |
| FLRT2 (fibronectin leucine rich transmembrane protein 2) | 3 | -0.444 | 85.9 | 63.1 | inactive |
| FLRT2 (fibronectin leucine rich transmembrane protein 2) | 4 | 0.0466 | 62.7 | 64.7 | inactive |
| BORA (BORA aurora kinase A activator) | 1 | -0.0697 | 63 | 60 | inactive |
| BORA (BORA aurora kinase A activator) | 2 | 0.0339 | 81 | 83 | inactive |
| BORA (BORA aurora kinase A activator) | 3 | -0.523 | 83 | 57.8 | inactive |
| OR1F1 (olfactory receptor family 1 subfamily F member 1) | 1 | -0.177 | 72.7 | 64.3 | inactive |
| OR1F1 (olfactory receptor family 1 subfamily F member 1) | 2 | -0.131 | 53.1 | 48.5 | inactive |
| OR1F1 (olfactory receptor family 1 subfamily F member 1) | 3 | 0.135 | 49.8 | 54.7 | inactive |
| OR1F1 (olfactory receptor family 1 subfamily F member 1) | 4 | 0.48 | 34 | 47.4 | inactive |
| KIF11 (kinesin family member 11) | 1 | -0.446 | 60.3 | 44.2 | inactive |
| KIF11 (kinesin family member 11) | 2 | -0.0736 | 43.3 | 41.1 | inactive |
| KIF11 (kinesin family member 11) | 3 | 0.0774 | 18.2 | 19.2 | inactive |
| ATRAID (all-trans retinoic acid induced differentiation factor) | 1 | -0.525 | 26 | 18.1 | inactive |
| ATRAID (all-trans retinoic acid induced differentiation factor) | 2 | -0.302 | 96.9 | 78.6 | inactive |
| ATRAID (all-trans retinoic acid induced differentiation factor) | 3 | 0.116 | 58.6 | 63.5 | inactive |
